Measurements as given in PubChem BioAssay AID1224858 (National Center for Advancing Translational Sciences (NCATS), 2016).
The inconclusive results got no clear call from the source; some entries with a clear call stand among them for comparison. Where a call stands in place of a potency, no number is given. Potencies of inconclusive entries are doubtful fits and often do not repeat. The source made the active and inactive calls. Calls come from the whole dose curve; as a rule, active = well fitted inhibition curve with a large enough effect; inconclusive = small, poorly fitted or top-dose-only effect; inactive = no such curve, though single readings can be large or run the other way.

Assay: Confirmation assay for measurement of the activity of small molecule inhibitors on Zika virus induced Caspase-3 activity in human astrocytes
Conditions: ZIKV-induced caspase-3/7 luminescence, 6 h; series mostly up to 46.1 µM
Excerpt: National Center for Advancing Translational Sciences [NCATS] Johns Hopkins University School of Medicine Florida State University Assay Overview: Increase in the Caspase-3 activity indicates an activation of apoptosis cell death pathway caused by Zika virus infection in certain types of neuronal cells including human neural progenitor cells (hNPCs), astrocytes, and astrocytoma cell line (SNB-19). This cell-based caspase-3 activity assay measures the increased caspase-3 activity in the human astrocytes after a 6-hour Zika virus infection with a luminescence readout. A decrease in the luminescence signal in this assay by small molecule treatment indicates an inhibitory effect of that small molecule on the Zika virus induced caspase-3 activity that may correlate with its effect on reduction of Zika virus caused cell death.
Assay Protocol Summary: The medium for astrocytes contains AM basal medium (ScienCell, Cat.# 1801), AGS (ScienCell, Cat.# 1801), 10% FBS, and 1% Pen/Strep. A Caspase-Glo 3/7 assay kit (catalog number G8092; Promega, Madison, WI) was used to detect caspase-3 activity induced by Zika virus infection in human cells. The reagent mixture was reconstituted as described in the protocol from the manufacturer. Polystyrene tissue culture treated and PDL coated white plates were obtained from Greiner Bio-One (Monroe, NC). Cells were seeded in 384- or 1536-well assay plates and cultured at 37 C with 5% CO2 for 16 to 20 hours. The typical cell seeding density in the 1536-well plate assay is 350 cells/well in 3 ul medium for astrocytes in tissue culture treated plates. Compounds were added to cells and incubated for one hour before addition of ZIKV solution to cells (2 FFU/cell). After incubation at 37 C with 5% CO2 for 6 hours, the reagent mixture of Caspase-Glo 3/7 assay kit was added to each well, followed by incubation at room temperature for 30 minutes. The luminescence intensity of the assay plates was measured using a ViewLux plate reader (PerkinElmer). Data were normalized by using the cell-containing wells without ZIKV as a negative control (0% induction of caspase 3/7 activity) and wells containing ZIKV infected cells (Caspase-3 activity induced) as a positive control (100% induction of caspase 3 activity). The percentage inhibitions of the increased Caspase-3 activity by small molecule inhibitors were then calculated.

Row | SMILES | Potency
1 | S=C(SSC(=S)N1CCCCC1)N1CCCCC1 | inconclusive: 15.5 µM [inhibitor, single point]
2 | O=C1C=CC[C@@H]2[C@H]3CCCN4CCC[C@@H](CN12)[C@@H]34 | inactive
3 | COC1(CS(=O)c2ccccc2)CCN(CCc2c[nH]c3ccc(F)cc23)CC1 (centres undefined) | inactive
4 | CC(C)N[C@@H]1CCn2c(=O)[nH]c3cccc(c32)[C@@H]1O | inactive
5 | CN1CC[C@@]2(C)c3cc(OC(=O)Nc4ccccc4)ccc3N(C)[C@@H]12 | inconclusive: 24.5 µM [inhibitor, single point]
6 | O=C1CCC[C@@H]2[C@H]3CCCN4CCC[C@@H](CN12)[C@@H]34 | inactive
7 | CC[n+]1c(-c2ccccc2)c2cc(N)ccc2c2ccc(N)cc21 | inconclusive: 6.15 µM [inhibitor, partial curve, poor fit]
8 | COc1cccc2c1C(=O)c1c(O)c3c(c(O)c1C2=O)C[C@@](O)(C(=O)CO)CC3OC1CC(N2CCOC(OC)C2)C(O)C(C)O1 (some centres undefined) | inconclusive: 15.5 µM [inhibitor, single point]
9 | CC(C)[N+](C)(CCC(C(N)=O)(c1ccccc1)c1ccccc1)C(C)C | inactive
